# Laboratory results reported in the odorant receptor screen of Mainland et al. (2015).
# Where “and” joins values, the source holds several entries; their conditions need not be identical. Equal entries are not always repeated. The list shows a part of the results. Single wells; the ratio to wells without odorant was worked out here, and repeats agree poorly.
# What was measured:
# Test in all cases: odorant receptor activation (CRE luciferase / Renilla) (fold of no-odor wells); higher = more activation
# Details in all cases: 100 µM
# OR5T2 clone 1313 = tested on: OR5T2 clone 1313
# OR5T2 clone 1428 = tested on: OR5T2 clone 1428
# OR5T3 clone 1343 = tested on: OR5T3 clone 1343
# OR5V1 clone 1070 = tested on: OR5V1 clone 1070
# OR6A2 clone 1489 = tested on: OR6A2 clone 1489
# OR6B1 R143C clone 1181 = tested on: OR6B1 R143C clone 1181
# OR6B2 R122C clone 1444 = tested on: OR6B2 R122C clone 1444
# OR6B3 R261W clone 1445 = tested on: OR6B3 R261W clone 1445
# [1] = tested on: OR6C1 V74I/C130Y/L161F/H165D/V246I/R291K clone 1442
# OR6C2 clone 1413 = tested on: OR6C2 clone 1413
SMILES,odorant receptor activation (OR5T2 clone 1313),odorant receptor activation (OR5T2 clone 1428),odorant receptor activation (OR5T3 clone 1343),odorant receptor activation (OR5V1 clone 1070),odorant receptor activation (OR6A2 clone 1489),odorant receptor activation (OR6B1 R143C clone 1181),odorant receptor activation (OR6B2 R122C clone 1444),odorant receptor activation (OR6B3 R261W clone 1445),odorant receptor activation [1],odorant receptor activation (OR6C2 clone 1413)
CC(=O)OC1CC2CCC1(C)C2(C)C (stereo not given) [isobornyl acetate],1.25 and 0.722,0.959,1.12 and 0.852,1.09,0.958 and 1.16,0.699,0.771,1.02,0.981,0.771
CCCC(=O)O [butyric acid],1.05,0.216,0.856,1.31,1.03,0.811,0.292,0.318,0.163,0.216
CC12CCC(CC1)C(C)(C)O2 [cineole],1.11,0.188,0.924,0.945,0.9,0.902,0.27,0.341,0.128,0.201
CCCCCCCCOC(C)=O [octyl acetate],1.12,0.891,1.05,1.17,1.03,0.874,0.607,0.848,1.23,0.858
COc1cc(C=O)ccc1O [vanillin],1.05,0.984,1.19,0.915,1.01,1.18,1.14,0.958,1.02,1.06
CCCCCCOC(=O)CCC [hexyl butyrate],0.955 and 0.733,0.765,1.07 and 1.29,1.06,1.07 and 0.987,0.88,0.787,0.945,1,0.867
c1cnccn1 [pyrazine],0.816,1.23,0.903,0.983,0.888,1.1,1.36,0.949,1.4,1.06
O=C1CCCCC1 [Cyclohexanone],0.451,0.868,0.684,1.39,0.656 and 1.36,0.897,1.01,0.841,0.989,0.917
CCC1(O)C2(C)CCC(C2)C1(C)C (stereo not given) [2-ethylfenchol],0.69,0.821,0.566,2.64,1.34,0.896,1.07,0.538,5.84,0.924
COc1ccccc1O [guaiacol],1.05 and 0.91,0.831,1.33 and 1,0.908,1.05 and 1.14,0.869,0.756,1.09,0.872,0.784
CC(=O)c1ccccc1 [acetophenone],0.791,0.949,1.38,1.14,1.43 and 1.06,1.33,1.07,0.891,1.14,0.8
CC12C=CCC1C1CCC3CC(=O)CCC3(C)C1CC2 (stereo not given) [androstenone],1.09,0.901,1.51,1.62,0.964,3.9,1.12,0.654,1.01,1.08
CC=Cc1ccc(O)c(OC)c1 [isoeugenol],1.15 and 0.943,1.28,2.06 and 1.34,1.27,1.13 and 2.41,0.762,1.19,1.38,1.71,1.67
CC(C)(C)c1ccc(CCC=O)cc1 [bourgeonal],0.758,0.161,0.537,0.949,0.791,0.688,0.251,0.371,0.132,0.191
CC(=O)OCC=C(C)CCC=C(C)C [geranyl acetate],1.16 and 1.1,1.06,1.55 and 1.37,0.902,1.26 and 1.59,0.922,1.04,1.37,1.27,1.11
CC(C)CCC(=O)O [4-methylvaleric acid],1.05,0.962,1.06,1.29,1.11,0.976,1.22,0.812,1.37,1.48
COc1cc(C)ccc1O [2-methoxy-4-methylphenol],0.952,1.04,1.16,1.59,0.877,1.04,1.21,0.573,1.42,0.952
CCCCCCCCCC=O [decyl aldehyde],1.19,1.52,1.01,1.15,1.16,1.34,1.32,1.37,1.33,1.17
CCCCCC(=O)O [caproic acid],1.2,0.22,0.875,1.06,0.873,1,0.318,0.326,0.131,0.193
C=CC(C)(O)CCC=C(C)C (stereo not given) [linalool],1.1,0.978,0.794,1.25,1.1,0.964,0.739,0.937,1.41,0.812
CCCCCC(C)=O [2-heptanone],0.923,0.785,1.35,0.667,0.858 and 0.75,1.32,0.868,0.923,0.933,0.985
CCCCCCCOC(C)=O [heptyl acetate],1.15 and 0.699,1.02,1.31 and 1.09,0.646,0.967 and 1.42,0.973,0.851,1.1,1.12,0.919
CC12C=CCC1C1CCC3=CC(=O)CCC3(C)C1CC2 (stereo not given) [androstadienone],0.905 and 1.01,0.978,1.71 and 1.05,3.17,1.4 and 1.44,0.945,1.01,0.965,1.05,0.875
O=CCc1ccccc1 [phenyl acetaldehyde],1.32,1.52,1.2,0.94,1.5,0.721,1.47,0.932,1.49,1.43
CCCCCCCCCCC=O [undecanal],1.25,1.12,1.01,0.99,1.18,1.01,1.05,0.987,1.08,1.18
C=CCc1ccc(OC)c(OC)c1 [eugenol methyl ether],1.45,1.44,1.14,1.54,1.33,1.57,1.45,1.54,1.46,1.52
CC(=O)C(C)=O [diacetyl],1.01,1.64,1.03,1.19,1.31,1.11,1.05,1.28,1.22,1.23

# Some values from the entries so far:
# `O=C1CCCCC1` [Cyclohexanone] | odorant receptor activation (OR6A2 clone 1489): 0.656 and 1.36
# `CC(=O)C(C)=O` [diacetyl] | odorant receptor activation (OR5T2 clone 1313): 1.01
